Strings that start with PEPTIDE1 are HELM notation: dots part the residues, brackets hold end groups and non-standard residues.
Assay: general procedure: Fmoc solid-phase peptide synthesis; Fmoc-Rink-MBHA Low Loading Resin, 100-200 mesh, 1% DVB cross-linked polystyrene, 0.3-0.4 meq/g (EMD Millipore); diisopropylcarbodiimide/Oxyma; PyAOP/DIPEA for fatty acid-linker
Conditions: whole synthesis, analytical RP-HPLC, TFA salt

Which “final HPLC purity” value does the source give for “PEPTIDE1{Y.[Aib].Q.G.T.F.T.S.D.F.S.K.[aMeL].L.D.K.[Klip3066570].A.Q.[Aib].A.F.I.E.Y.L.L.A.G.G.P.S.S.G.E.P.P.P.S.E.G.[NH2]}$$$$V2.0” here?
Its value is 98.8%.
